Consider two molecules from PMC9795356.

Results are given in words; binding and its absence hold for the method and conditions named. Binding seen in cells or lysates may run through a third protein. A yes stands for co-enrichment or nearness to the bait. Other partners may have been found. No binding means not detected with the bait. Where a sequence is shown, tags or fusion partners need not be part of it.

Assay [1] concerns the target T1, FLAG-SCAF4 (human) (UniProt O95104).
T1 sequence: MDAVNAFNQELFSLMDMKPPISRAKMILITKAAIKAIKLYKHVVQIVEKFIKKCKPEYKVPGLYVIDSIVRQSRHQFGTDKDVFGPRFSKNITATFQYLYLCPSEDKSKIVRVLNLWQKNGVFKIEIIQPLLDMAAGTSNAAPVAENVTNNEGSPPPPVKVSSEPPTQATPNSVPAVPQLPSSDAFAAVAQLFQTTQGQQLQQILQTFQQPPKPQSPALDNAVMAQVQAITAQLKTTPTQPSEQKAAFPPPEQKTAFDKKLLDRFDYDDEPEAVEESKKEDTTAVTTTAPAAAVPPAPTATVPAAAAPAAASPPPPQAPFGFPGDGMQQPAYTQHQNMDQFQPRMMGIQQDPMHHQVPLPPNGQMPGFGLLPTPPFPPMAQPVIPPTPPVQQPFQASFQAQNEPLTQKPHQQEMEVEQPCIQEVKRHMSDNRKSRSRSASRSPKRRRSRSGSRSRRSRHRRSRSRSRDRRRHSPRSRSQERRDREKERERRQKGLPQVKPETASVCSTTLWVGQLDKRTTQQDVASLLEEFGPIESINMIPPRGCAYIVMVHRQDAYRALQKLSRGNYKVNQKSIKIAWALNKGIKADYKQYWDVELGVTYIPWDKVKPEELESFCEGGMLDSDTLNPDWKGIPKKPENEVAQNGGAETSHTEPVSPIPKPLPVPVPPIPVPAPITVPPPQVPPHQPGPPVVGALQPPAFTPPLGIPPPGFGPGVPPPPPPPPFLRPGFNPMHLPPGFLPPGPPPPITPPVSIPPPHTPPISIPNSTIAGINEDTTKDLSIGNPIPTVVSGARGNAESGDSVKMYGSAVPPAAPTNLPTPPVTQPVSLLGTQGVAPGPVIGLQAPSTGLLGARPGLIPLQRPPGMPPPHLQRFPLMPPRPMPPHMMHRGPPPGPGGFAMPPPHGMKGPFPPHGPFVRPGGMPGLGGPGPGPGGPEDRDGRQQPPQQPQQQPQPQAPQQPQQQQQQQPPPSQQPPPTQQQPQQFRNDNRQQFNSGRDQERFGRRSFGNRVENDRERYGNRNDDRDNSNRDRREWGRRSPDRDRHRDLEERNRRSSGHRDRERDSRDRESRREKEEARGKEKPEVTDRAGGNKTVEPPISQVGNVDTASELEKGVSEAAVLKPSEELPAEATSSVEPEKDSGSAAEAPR
In words: affinity purification with mass spectrometry; SCAF4 or SCAF8 ELCAP-MS: double IP (FLAG IP, 3xFLAG peptide elution, then RNAPII 4H8 IP) from Benzonase-treated chromatin extract; label-free, two biological replicates, triplicate injection; control: parental HEK293 cells.

In assay [2] the target is T2, FLAG-SCAF8 (human) (UniProt Q9UPN6).
T2 sequence: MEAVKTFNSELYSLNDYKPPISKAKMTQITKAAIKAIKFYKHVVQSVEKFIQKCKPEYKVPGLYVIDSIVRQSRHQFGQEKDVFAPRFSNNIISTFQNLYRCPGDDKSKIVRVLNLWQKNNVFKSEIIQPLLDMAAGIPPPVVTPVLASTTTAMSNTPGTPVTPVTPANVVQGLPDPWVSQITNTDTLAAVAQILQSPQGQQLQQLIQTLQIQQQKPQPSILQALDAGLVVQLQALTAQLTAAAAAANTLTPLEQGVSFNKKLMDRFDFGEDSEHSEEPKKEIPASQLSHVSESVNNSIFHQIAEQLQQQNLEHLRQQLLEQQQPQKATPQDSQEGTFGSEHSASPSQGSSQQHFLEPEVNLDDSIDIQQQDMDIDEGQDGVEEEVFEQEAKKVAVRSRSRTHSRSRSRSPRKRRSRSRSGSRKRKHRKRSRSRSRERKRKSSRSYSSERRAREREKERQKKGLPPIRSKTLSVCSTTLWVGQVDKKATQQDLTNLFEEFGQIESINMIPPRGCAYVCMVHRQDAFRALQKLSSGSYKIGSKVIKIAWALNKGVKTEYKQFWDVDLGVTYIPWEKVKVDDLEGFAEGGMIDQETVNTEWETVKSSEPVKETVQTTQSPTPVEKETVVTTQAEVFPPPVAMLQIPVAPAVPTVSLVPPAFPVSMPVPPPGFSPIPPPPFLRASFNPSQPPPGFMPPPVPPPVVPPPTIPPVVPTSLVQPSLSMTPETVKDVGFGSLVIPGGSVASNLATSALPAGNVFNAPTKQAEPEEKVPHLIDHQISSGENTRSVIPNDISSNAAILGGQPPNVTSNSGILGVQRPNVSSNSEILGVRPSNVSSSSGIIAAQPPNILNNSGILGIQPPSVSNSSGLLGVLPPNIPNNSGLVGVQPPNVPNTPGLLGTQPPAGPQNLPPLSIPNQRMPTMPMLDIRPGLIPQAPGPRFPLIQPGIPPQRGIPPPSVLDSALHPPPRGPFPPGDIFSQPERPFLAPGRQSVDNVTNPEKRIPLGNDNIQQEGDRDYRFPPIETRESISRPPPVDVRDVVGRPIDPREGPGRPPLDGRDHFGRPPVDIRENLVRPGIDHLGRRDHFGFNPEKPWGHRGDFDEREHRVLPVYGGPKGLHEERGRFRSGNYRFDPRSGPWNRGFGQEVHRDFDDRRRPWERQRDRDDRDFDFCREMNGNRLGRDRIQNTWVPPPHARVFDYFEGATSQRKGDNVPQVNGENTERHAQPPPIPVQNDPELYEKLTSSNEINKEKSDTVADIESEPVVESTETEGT
The description is as above.

B1: MATR3 (protein, UniProt P43243 1-847)
chain: MSKSFQQSSLSRDSQGHGRDLSAAGIGLLAAATQSLSMPASLGRMNQGTARLASLMNLGMSSSLNQQGAHSALSSASTSSHNLQSIFNIGSRGPLPLSSQHRGDADQASNILASFGLSARDLDELSRYPEDKITPENLPQILLQLKRRRTEEGPTLSYGRDGRSATREPPYRVPRDDWEEKRHFRRDSFDDRGPSLNPVLDYDHGSRSQESGYYDRMDYEDDRLRDGERCRDDSFFGETSHNYHKFDSEYERMGRGPGPLQERSLFEKKRGAPPSSNIEDFHGLLPKGYPHLCSICDLPVHSNKEWSQHINGASHSRRCQLLLEIYPEWNPDNDTGHTMGDPFMLQQSTNPAPGILGPPPPSFHLGGPAVGPRGNLGAGNGNLQGPRHMQKGRVETSRVVHIMDFQRGKNLRYQLLQLVEPFGVISNHLILNKINEAFIEMATTEDAQAAVDYYTTTPALVFGKPVRVHLSQKYKRIKKPEGKPDQKFDQKQELGRVIHLSNLPHSGYSDSAVLKLAEPYGKIKNYILMRMKSQAFIEMETREDAMAMVDHCLKKALWFQGRCVKVDLSEKYKKLVLRIPNRGIDLLKKDKSRKRSYSPDGKESPSDKKSKTDGSQKTESSTEGKEQEEKSGEDGEKDTKDDQTEQEPNMLLESEDELLVDEEEAAALLESGSSVGDETDLANLGDVASDGKKEPSDKAVKKDGSASAAAKKKLKKVDKIEELDQENEAALENGIKNEENTEPGAESSENADDPNKDTSENADGQSDENKDDYTIPDEYRIGPYQPNVPVGIDYVIPKTGFYCKLCSLFYTNEEVAKNTHCSSLPHYQKLKKFLNKLAEERRQKKET
Turning to B1, the binding entry in assay [1] and in assay [2] was “no binding” in each case.

B2: CHERP (protein, UniProt Q8IWX8 1-916)
chain: MEMPLPPDDQELRNVIDKLAQFVARNGPEFEKMTMEKQKDNPKFSFLFGGEFYSYYKCKLALEQQQLICKQQTPELEPAATMPPLPQPPLAPAAPIPPAQGAPSMDELIQQSQWNLQQQEQHLLALRQEQVTAAVAHAVEQQMQKLLEETQLDMNEFDNLLQPIIDTCTKDAISAGKNWMFSNAKSPPHCELMAGHLRNRITADGAHFELRLHLIYLINDVLHHCQRKQARELLAALQKVVVPIYCTSFLAVEEDKQQKIARLLQLWEKNGYFDDSIIQQLQSPALGLGQYQATLINEYSSVVQPVQLAFQQQIQTLKTQHEEFVTSLAQQQQQQQQQQQQLQMPQMEAEVKATPPPPAPPPAPAPAPAIPPTTQPDDSKPPIQMPGSSEYEAPGGVQDPAAAGPRGPGPHDQIPPNKPPWFDQPHPVAPWGQQQPPEQPPYPHHQGGPPHCPPWNNSHEGMWGEQRGDPGWNGQRDAPWNNQPDAAWNSQFEGPWNSQHEQPPWGGGQREPPFRMQRPPHFRGPFPPHQQHPQFNQPPHPHNFNRFPPRFMQDDFPPRHPFERPPYPHRFDYPQGDFPAEMGPPHHHPGHRMPHPGINEHPPWAGPQHPDFGPPPHGFNGQPPHMRRQGPPHINHDDPSLVPNVPYFDLPAGLMAPLVKLEDHEYKPLDPKDIRLPPPMPPSERLLAAVEAFYSPPSHDRPRNSEGWEQNGLYEFFRAKMRARRRKGQEKRNSGPSRSRSRSKSRGRSSSRSNSRSSKSSGSYSRSRSRSCSRSYSRSRSRSRSRSRSSRSRSRSQSRSRSKSYSPGRRRRSRSRSPTPPSSAGLGSNSAPPIPDSRLGEENKGHQMLVKMGWSGSGGLGAKEQGIQDPIKGGDVRDKWDQYKGVGVALDDPYENYRRNKSYSFIARMKARDECK
Take B2: the binding result in assay [1] and in assay [2] was “no binding” in each case.
